{"sequences": {"note": "The chains behind the UniProt entries cited, without tags or fusion partners. Where a name states a change or a piece, a line headed by the entry shows the natural chain unless it says otherwise.", "UniProt P0DTC6": "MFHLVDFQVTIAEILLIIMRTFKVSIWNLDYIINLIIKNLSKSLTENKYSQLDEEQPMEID", "UniProt P42224": "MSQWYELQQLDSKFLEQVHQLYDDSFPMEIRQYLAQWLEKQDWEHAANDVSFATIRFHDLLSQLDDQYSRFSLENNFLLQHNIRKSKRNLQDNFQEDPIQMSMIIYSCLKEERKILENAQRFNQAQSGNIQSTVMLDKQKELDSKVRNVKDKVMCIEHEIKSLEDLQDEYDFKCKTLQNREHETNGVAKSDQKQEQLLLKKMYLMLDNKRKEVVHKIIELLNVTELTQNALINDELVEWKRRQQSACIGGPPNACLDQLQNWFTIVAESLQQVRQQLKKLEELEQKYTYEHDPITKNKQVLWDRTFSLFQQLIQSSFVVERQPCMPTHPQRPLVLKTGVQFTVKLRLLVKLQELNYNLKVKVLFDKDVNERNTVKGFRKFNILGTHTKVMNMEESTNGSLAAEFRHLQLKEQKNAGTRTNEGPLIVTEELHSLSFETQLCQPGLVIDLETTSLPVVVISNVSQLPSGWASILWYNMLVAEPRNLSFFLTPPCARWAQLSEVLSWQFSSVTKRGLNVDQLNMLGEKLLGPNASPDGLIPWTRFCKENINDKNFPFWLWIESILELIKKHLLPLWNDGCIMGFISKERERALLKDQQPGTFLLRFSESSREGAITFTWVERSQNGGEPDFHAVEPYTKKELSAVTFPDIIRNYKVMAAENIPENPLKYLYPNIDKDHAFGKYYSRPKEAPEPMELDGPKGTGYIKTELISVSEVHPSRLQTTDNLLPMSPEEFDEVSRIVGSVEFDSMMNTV"}, "source": "paper PMC9120032", "key": {"[1]": {"molecular_target": "GST-M3-GFP (SARS-CoV-2) (UniProt P0DTC6)", "test": "pull-down; lysates from HeLa cells stimulated with IFN-γ incubated with GST fusion proteins immobilised on GST-beads for 1 h; PY-STAT1 detected by western blot; only the target purified"}, "[2]": {"molecular_target": "GST-M2-GFP (SARS-CoV-2) (UniProt P0DTC6)", "test": "pull-down; lysates from HeLa cells stimulated with IFN-γ incubated with GST fusion proteins immobilised on GST-beads for 1 h; PY-STAT1 detected by western blot; only the target purified"}}, "note": "These are yes or no findings as the source states them, for the method shown. Binding seen in cells or lysates may run through a third protein.", "data": [{"substance": "endogenous PY-STAT1 in HeLa cells stimulated by IFN-γ (from UniProt P42224 1-750)", "values": [{"measurement": "binding", "setting": "[1]", "result": "no binding"}, {"measurement": "binding", "setting": "[2]", "result": "no binding"}]}]}
